Some of the results follow.
Legend:
Experiment in all cases: log2 fold change, soluble protein after heating vs DMSO (PISA); higher = thermal stabilisation; K562 lysate, 10 uM; active = over 0.2 and 3.5 SD of the protein, either way, in both replicates (recomputed)
vemurafenib = compound: CCCS(=O)(=O)Nc1ccc(F)c(C(=O)c2c[nH]c3ncc(-c4ccc(Cl)cc4)cc23)c1F [vemurafenib]
Outline: (§1)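 Pellets of K562 cells were dounce-homogenised in PBS pH 7.4 with 1 mM MgCl2, and the crude extract was held at 1 mg/mL protein for a 30 min treatment with 10 μM compound. Aliquots were heated for 3 min over 48°C-58°C and pooled before NP-40 was added to 0.5% at 4°C. The supernatant from 21,000xg for 90 min was quantified by TMTpro 16plex LC-MS/MS with channel sums equalised. Values are reported from duplicates as log-two fold change in thermal stability relative to solvent controls.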

By UniProt entry, the sequences of proteins in these tests, tags left out. Where a name states a change or a piece, a line headed by the entry shows the natural chain unless it says otherwise.
UniProt P27144: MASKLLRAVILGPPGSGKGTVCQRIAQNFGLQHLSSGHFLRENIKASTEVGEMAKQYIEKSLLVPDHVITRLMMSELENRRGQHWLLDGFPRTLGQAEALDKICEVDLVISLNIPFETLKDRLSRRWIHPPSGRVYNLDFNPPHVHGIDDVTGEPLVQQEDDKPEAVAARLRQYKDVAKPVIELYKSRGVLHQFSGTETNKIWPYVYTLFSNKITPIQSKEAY
UniProt O00170: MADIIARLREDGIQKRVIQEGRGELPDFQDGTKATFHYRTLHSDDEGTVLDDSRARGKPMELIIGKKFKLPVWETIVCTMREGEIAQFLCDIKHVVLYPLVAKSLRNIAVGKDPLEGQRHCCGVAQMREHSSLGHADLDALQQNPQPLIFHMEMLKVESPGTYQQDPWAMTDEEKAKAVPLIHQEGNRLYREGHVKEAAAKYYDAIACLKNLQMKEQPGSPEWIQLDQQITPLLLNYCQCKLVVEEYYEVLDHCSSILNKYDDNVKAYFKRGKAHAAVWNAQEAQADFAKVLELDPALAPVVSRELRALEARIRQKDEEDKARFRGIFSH
UniProt Q9UHB7: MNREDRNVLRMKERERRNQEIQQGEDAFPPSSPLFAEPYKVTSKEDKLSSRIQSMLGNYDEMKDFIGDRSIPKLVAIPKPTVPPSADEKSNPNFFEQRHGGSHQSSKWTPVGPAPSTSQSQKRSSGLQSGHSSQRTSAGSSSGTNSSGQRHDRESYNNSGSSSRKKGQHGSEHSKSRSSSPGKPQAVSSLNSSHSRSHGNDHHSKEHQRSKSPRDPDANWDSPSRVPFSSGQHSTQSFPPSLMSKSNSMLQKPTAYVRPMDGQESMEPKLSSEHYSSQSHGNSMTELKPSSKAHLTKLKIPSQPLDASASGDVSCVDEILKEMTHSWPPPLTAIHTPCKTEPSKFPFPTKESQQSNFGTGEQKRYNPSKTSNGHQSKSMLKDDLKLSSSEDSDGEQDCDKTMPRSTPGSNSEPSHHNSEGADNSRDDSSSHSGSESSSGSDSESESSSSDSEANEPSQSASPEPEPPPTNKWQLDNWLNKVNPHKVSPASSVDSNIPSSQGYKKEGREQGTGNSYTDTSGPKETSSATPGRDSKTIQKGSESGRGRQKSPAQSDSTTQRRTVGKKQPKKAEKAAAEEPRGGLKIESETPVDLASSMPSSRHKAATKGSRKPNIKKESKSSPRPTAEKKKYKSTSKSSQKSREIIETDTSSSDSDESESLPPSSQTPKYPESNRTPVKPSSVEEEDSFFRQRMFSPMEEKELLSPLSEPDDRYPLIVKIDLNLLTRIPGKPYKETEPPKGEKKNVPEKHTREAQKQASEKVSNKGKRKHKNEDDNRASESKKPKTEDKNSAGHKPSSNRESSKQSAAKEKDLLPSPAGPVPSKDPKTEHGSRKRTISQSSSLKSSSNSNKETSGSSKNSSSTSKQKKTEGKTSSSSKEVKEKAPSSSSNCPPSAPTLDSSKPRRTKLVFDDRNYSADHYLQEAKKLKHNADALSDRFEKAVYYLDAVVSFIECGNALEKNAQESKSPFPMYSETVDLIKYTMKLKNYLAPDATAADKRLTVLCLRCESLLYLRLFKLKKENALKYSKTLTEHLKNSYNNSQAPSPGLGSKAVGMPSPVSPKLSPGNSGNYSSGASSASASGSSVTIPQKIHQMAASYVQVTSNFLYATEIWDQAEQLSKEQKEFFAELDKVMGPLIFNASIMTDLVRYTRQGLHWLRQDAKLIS
UniProt O43488: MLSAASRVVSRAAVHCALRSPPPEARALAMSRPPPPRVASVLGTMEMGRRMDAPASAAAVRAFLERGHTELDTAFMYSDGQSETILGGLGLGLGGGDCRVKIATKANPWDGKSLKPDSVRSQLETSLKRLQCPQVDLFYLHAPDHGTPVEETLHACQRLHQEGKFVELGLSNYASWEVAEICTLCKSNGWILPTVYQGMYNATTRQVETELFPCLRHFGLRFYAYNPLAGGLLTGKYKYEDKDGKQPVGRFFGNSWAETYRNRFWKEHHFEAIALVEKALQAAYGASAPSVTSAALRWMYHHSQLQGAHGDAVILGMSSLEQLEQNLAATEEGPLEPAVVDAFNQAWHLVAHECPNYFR
UniProt Q9NR19, whole entry, looked up: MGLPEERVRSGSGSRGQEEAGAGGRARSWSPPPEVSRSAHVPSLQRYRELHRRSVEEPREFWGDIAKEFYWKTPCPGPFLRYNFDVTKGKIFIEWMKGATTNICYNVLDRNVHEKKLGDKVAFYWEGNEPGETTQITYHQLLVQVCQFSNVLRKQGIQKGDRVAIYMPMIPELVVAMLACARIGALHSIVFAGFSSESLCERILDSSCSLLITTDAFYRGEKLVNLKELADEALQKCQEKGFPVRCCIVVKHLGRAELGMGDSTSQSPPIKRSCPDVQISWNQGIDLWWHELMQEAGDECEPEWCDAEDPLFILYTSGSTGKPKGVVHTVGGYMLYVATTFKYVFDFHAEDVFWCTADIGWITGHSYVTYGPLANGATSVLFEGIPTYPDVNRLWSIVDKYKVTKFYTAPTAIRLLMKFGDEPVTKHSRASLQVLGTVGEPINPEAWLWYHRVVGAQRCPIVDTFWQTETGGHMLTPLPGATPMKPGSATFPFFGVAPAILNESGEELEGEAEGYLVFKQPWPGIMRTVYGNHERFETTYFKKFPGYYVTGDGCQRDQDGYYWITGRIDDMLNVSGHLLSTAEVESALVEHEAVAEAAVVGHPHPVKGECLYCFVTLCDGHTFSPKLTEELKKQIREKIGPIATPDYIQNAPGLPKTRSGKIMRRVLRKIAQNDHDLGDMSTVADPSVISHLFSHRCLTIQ
UniProt Q16186: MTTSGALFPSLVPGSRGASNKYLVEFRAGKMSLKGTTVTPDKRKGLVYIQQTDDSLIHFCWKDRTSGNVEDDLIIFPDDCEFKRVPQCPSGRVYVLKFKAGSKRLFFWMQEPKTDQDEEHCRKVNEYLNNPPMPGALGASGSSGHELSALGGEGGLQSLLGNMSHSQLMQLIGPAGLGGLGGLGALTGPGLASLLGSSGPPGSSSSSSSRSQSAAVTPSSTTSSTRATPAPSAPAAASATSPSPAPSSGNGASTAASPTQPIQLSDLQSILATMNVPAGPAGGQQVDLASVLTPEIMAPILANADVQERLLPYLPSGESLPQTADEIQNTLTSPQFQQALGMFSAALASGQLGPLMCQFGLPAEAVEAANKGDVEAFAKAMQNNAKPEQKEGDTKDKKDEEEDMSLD
UniProt Q53FZ2: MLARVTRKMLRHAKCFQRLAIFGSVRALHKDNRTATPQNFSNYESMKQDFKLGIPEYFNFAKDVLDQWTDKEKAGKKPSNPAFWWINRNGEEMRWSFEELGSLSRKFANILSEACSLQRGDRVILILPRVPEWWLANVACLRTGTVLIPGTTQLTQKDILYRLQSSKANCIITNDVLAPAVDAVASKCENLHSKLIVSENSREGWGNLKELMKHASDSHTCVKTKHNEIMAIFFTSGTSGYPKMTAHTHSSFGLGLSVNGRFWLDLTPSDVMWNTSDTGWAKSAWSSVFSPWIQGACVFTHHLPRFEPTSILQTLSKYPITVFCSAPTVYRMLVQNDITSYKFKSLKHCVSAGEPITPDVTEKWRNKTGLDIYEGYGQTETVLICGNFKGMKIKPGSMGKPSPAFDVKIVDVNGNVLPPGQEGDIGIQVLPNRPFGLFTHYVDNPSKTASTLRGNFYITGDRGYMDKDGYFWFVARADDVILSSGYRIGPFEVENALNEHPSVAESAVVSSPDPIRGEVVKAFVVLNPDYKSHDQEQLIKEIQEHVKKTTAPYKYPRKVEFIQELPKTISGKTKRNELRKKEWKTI
UniProt Q9Y3D8, whole entry, looked up: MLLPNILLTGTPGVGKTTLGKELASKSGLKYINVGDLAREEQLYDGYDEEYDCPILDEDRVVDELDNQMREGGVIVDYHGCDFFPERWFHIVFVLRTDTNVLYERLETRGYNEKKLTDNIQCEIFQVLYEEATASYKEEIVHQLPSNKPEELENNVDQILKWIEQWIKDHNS
UniProt P12814, whole entry, looked up: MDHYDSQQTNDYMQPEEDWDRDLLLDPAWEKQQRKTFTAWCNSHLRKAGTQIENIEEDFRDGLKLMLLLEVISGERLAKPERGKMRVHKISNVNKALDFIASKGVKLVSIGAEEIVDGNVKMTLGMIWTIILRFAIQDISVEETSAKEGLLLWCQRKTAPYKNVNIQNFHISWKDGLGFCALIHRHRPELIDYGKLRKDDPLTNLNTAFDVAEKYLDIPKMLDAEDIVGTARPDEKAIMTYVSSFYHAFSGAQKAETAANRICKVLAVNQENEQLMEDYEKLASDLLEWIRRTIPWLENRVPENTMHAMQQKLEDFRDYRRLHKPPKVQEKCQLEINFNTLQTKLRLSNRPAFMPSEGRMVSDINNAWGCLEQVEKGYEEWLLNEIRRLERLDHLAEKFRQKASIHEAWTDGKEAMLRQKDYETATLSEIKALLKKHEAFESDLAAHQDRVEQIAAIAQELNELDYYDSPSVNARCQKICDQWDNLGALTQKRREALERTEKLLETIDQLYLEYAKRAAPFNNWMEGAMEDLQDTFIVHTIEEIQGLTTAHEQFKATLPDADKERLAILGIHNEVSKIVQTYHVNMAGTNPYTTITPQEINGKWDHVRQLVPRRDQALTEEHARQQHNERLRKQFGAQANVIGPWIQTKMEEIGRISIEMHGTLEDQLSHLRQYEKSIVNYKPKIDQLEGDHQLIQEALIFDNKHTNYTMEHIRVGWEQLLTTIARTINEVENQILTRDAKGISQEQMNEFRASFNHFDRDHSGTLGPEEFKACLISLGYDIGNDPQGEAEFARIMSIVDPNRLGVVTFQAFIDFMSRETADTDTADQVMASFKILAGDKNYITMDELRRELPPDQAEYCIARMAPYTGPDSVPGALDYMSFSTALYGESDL
UniProt O96019, whole entry, looked up: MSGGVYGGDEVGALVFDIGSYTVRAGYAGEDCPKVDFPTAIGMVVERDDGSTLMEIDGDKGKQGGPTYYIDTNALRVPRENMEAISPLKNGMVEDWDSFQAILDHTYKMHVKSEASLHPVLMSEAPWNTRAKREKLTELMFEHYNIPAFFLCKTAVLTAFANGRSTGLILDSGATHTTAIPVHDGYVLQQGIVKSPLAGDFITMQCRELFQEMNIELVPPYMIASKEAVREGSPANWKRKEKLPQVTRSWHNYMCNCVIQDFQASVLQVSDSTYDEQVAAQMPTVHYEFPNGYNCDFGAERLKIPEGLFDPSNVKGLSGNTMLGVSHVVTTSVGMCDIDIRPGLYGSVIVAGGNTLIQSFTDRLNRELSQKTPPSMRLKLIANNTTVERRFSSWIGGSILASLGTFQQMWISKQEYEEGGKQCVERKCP
UniProt Q9BRR6: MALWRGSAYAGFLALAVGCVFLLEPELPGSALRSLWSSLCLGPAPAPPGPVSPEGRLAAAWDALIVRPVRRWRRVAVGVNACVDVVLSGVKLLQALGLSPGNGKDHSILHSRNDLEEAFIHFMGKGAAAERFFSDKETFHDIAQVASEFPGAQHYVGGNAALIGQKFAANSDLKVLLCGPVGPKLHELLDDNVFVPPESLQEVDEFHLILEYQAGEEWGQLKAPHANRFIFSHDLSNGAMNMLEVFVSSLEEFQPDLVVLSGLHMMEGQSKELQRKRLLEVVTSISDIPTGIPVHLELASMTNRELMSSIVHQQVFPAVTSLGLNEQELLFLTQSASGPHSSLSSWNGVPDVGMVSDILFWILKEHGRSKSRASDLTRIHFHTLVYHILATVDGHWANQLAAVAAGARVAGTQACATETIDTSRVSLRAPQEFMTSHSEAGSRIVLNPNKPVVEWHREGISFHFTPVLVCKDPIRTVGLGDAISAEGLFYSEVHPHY
UniProt Q6DHV7: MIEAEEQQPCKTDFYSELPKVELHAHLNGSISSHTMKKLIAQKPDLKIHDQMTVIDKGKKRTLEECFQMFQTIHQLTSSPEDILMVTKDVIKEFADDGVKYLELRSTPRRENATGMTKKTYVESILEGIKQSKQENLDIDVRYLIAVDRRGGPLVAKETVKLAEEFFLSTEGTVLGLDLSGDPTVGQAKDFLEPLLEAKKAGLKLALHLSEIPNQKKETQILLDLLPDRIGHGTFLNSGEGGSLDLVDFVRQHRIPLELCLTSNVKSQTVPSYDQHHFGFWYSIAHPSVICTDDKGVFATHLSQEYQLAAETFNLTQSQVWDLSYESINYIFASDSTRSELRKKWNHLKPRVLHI
UniProt Q9GZN1, whole entry, looked up: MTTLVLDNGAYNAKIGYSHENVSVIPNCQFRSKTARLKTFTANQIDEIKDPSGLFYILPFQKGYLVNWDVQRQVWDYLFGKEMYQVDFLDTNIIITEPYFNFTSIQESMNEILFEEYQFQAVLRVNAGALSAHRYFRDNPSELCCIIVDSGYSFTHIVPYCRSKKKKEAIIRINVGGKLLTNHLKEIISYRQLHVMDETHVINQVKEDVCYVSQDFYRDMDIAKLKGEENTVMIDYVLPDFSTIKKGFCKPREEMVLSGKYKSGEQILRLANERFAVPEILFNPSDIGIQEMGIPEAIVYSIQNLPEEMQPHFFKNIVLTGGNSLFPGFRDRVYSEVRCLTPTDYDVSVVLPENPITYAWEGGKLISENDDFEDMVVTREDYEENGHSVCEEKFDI

[1] = compound: CCCS(=O)(=O)Nc1ccc(F)c(C(=O)c2c[nH]c3ncc(Cl)cc23)c1F
Outline: as §1

barasertib = compound: CCN(CCCOc1ccc2c(Nc3cc(CC(=O)Nc4cccc(F)c4)[nH]n3)ncnc2c1)CCOP(=O)(O)O [barasertib]
Outline: as §1

[2] = compound: CC[C@@H]1C(=O)N(C)c2cnc(Nc3ccc(C(=O)NC4CCN(C)CC4)cc3OC)nc2N1C1CCCC1
Outline: as §1

volasertib = compound: CC[C@@H]1C(=O)N(C)c2cnc(Nc3ccc(C(=O)N[C@H]4CC[C@H](N5CCN(CC6CC6)CC5)CC4)cc3OC)nc2N1C(C)C [volasertib]
Outline: as §1

[3] = compound: CCn1c(C(=O)N(C2CC2)C2CC2)cc2c3c(ncn3C)c(Nc3cc(C)n(C)n3)nc21
Outline: as §1

[4] = compound: CCn1cc(-c2ccnc3[nH]c(-c4cccc(CN(C)C)c4)cc23)c(-c2ccc(NC(=O)N(C)C)cc2)n1
Outline: as §1

[5] = compound: CN1CCC(CNc2ccc3ncc(-c4cccc(OC(F)(F)F)c4)n3n2)CC1
Outline: as §1

saracatinib = compound: CN1CCN(CCOc2cc(OC3CCOCC3)c3c(Nc4c(Cl)ccc5c4OCO5)ncnc3c2)CC1 [saracatinib]
Outline: as §1

sotrastaurin = compound: CN1CCN(c2nc(C3=C(c4c[nH]c5ccccc45)C(=O)NC3=O)c3ccccc3n2)CC1 [sotrastaurin]
Outline: as §1

Target | log2 fold change (vemurafenib) | log2 fold change [1] | log2 fold change (barasertib) | log2 fold change [2] | log2 fold change (volasertib) | log2 fold change [3] | log2 fold change [4] | log2 fold change [5] | log2 fold change (saracatinib) | log2 fold change (sotrastaurin)
AK2 (UniProt P54819) | inactive: 0.014 | inactive: 0.062 | inactive: -0.013 | inactive: 0.029 | inactive: 0.013 | inactive: -0.009 | inactive: 0.119 | inactive: -0.008 | inactive: -0.015 | inactive: -0.038
AK4 (UniProt P27144) | inactive: -0.068 | inactive: 0.018 | inactive: 0.11 | inactive: -0.057 | inactive: -0.024 | inactive: 0.023 | inactive: -0.036 | inactive: -0.002 | inactive: -0.016 | inactive: 0.05
AKR1B1 (UniProt P15121) | inactive: 0.006 | inactive: 0.024 | inactive: 0.02 | inactive: 0.072 | inactive: -0.015 | inactive: 0.008 | inactive: -0.054 | inactive: 0.116 | inactive: 0.065 | inactive: -0.012
AIP (UniProt O00170) | inactive: -0.002 | inactive: 0.015 | inactive: -0.004 | inactive: 0.017 | inactive: -0.004 | inactive: -0.022 | active: 0.514 | inactive: -0.019 | inactive: -0.015 | inactive: 0.007
AGO4 (UniProt Q9HCK5) | inactive: 0.033 | inactive: 0.003 | inactive: 0.04 | inactive: -0.003 | inactive: 0.017 | inactive: -0.003 | inactive: 0.036 | inactive: 0.041 | inactive: -0.011 | inactive: -0.021
ACTBL2 (UniProt Q562R1) | inactive: -0.097 | inactive: 0.089 | inactive: -0.117 | inactive: 0.098 | inactive: -0.166 | inactive: 0.105 | inactive: 0.417 | inactive: -0.023 | inactive: -0.108 | inactive: 0.049
AHNAK (UniProt Q09666) | inactive: -0.026 | inactive: 0.003 | inactive: 0.01 | inactive: 0.079 | inactive: 0.046 | inactive: -0.028 | inactive: 0.037 | inactive: 0.039 | inactive: 0.011 | inactive: -0.003
AHCYL1 (UniProt O43865) | inactive: 0.018 | inactive: 0.021 | inactive: -0.001 | inactive: 0.001 | inactive: -0.073 | inactive: -0.021 | inactive: -0.055 | inactive: -0.012 | inactive: -0.021 | inactive: 0.006
AFF4 (UniProt Q9UHB7) | inactive: 0.157 | inactive: -0.012 | inactive: -0.072 | inactive: 0.001 | inactive: -0.019 | inactive: 0.023 | inactive: -0.133 | inactive: -0.04 | inactive: -0.009 | inactive: 0.002
AGO3 (UniProt Q9H9G7) | inactive: 0 | inactive: 0.014 | inactive: 0.025 | inactive: 0.033 | inactive: 0.019 | inactive: -0.029 | inactive: -0.014 | inactive: 0.067 | inactive: -0.003 | inactive: 0.025
ACOT7 isoform 7 (UniProt O00154) | inactive: -0.017 | inactive: 0.004 | inactive: 0.005 | inactive: 0.018 | inactive: 0.007 | inactive: -0.015 | inactive: -0.028 | inactive: 0.055 | inactive: 0.005 | inactive: -0.072
ADSS2 (UniProt P30520) | inactive: -0.014 | inactive: 0 | inactive: 0 | inactive: 0 | inactive: 0.015 | inactive: -0.022 | inactive: -0.063 | inactive: 0.065 | inactive: -0.012 | inactive: -0.022
AGL (UniProt P35573) | inactive: -0.014 | inactive: 0.002 | inactive: -0.015 | inactive: -0.063 | inactive: -0.058 | inactive: 0.013 | inactive: 0.131 | inactive: -0.083 | inactive: 0.013 | inactive: 0.049
AKR7A2 (UniProt O43488) | inactive: -0.024 | inactive: -0.011 | inactive: 0 | inactive: 0.034 | inactive: -0.014 | inactive: 0.02 | inactive: -0.019 | inactive: -0.026 | inactive: -0.027 | inactive: 0.026
ACSL1 (UniProt P33121) | inactive: 0.021 | inactive: 0.023 | inactive: 0.046 | inactive: -0.054 | inactive: -0.1 | inactive: 0.038 | inactive: -0.014 | inactive: -0.242 | inactive: -0.066 | inactive: -0.002
ACSS2 isoform 2 (UniProt Q9NR19) | inactive: -0.072 | inactive: -0.007 | inactive: -0.025 | inactive: -0.108 | inactive: -0.029 | inactive: 0.014 | inactive: -0.019 | inactive: -0.001 | inactive: 0.018 | inactive: 0.014
ADRM1 (UniProt Q16186) | inactive: -0.01 | inactive: 0.033 | inactive: 0.031 | inactive: -0.026 | inactive: -0.036 | inactive: 0.008 | inactive: -0.024 | inactive: -0.027 | inactive: 0 | inactive: 0.002
AHCY (UniProt P23526) | inactive: -0.032 | inactive: 0.001 | inactive: -0.019 | inactive: -0.007 | inactive: 0.018 | inactive: 0.009 | inactive: -0.067 | inactive: 0.046 | inactive: -0.007 | inactive: -0.017
ACTA1 (UniProt P68133) | inactive: 0.007 | inactive: 0.011 | inactive: 0.006 | inactive: 0.045 | inactive: -0.082 | inactive: -0.03 | inactive: 0.001 | inactive: 0.006 | inactive: 0.005 | inactive: 0.011
ACSM3 (UniProt Q53FZ2) | inactive: 0.083 | inactive: 0 | inactive: -0.022 | inactive: -0.019 | inactive: -0.027 | inactive: 0.001 | inactive: 0.029 | inactive: -0.033 | inactive: 0.033 | inactive: -0.017
AK6 (UniProt Q9Y3D8) | inactive: 0.007 | inactive: -0.079 | inactive: 0.04 | inactive: -0.045 | inactive: 0.032 | inactive: 0.033 | inactive: -0.001 | inactive: -0.009 | inactive: 0.027 | inactive: 0.011
AGO1 (UniProt Q9UL18) | inactive: -0.016 | inactive: 0.014 | inactive: 0.023 | inactive: 0.172 | inactive: 0.028 | inactive: -0.013 | inactive: 0.129 | inactive: -0.054 | inactive: 0.016 | inactive: 0.005
ACTN1 isoform 3 (UniProt P12814) | inactive: -0.022 | inactive: -0.009 | inactive: -0.025 | inactive: -0.001 | inactive: 0.034 | inactive: -0.005 | inactive: 0.046 | inactive: 0.017 | inactive: -0.007 | inactive: -0.017
ACTL6A (UniProt O96019) | inactive: 0.019 | inactive: 0.012 | inactive: -0.011 | inactive: 0.016 | inactive: 0 | inactive: -0.005 | inactive: -0.031 | inactive: 0.007 | inactive: 0.011 | inactive: 0
AFDN (UniProt J3KN01) | inactive: 0.021 | inactive: 0.027 | inactive: 0.014 | inactive: -0.016 | inactive: -0.022 | inactive: -0.016 | inactive: 0.027 | inactive: -0.031 | inactive: 0.012 | inactive: -0.028
ADPGK (UniProt Q9BRR6) | inactive: -0.029 | inactive: -0.013 | inactive: -0.009 | inactive: 0 | inactive: 0.058 | inactive: 0.065 | inactive: -0.076 | inactive: -0.005 | inactive: -0.002 | inactive: 0.01
ADAL (UniProt Q6DHV7) | inactive: 0.014 | inactive: 0.031 | inactive: -0.007 | inactive: 0.028 | inactive: 0.019 | inactive: -0.011 | inactive: 0.108 | inactive: -0.042 | inactive: 0.008 | inactive: -0.019
ACTR6 (UniProt Q9GZN1) | inactive: 0.09 | inactive: 0.007 | inactive: -0.059 | inactive: 0.029 | inactive: 0.047 | inactive: -0.083 | inactive: -0.221 | inactive: 0.121 | inactive: 0.047 | inactive: 0.097

A second format for part of the listing above.
Target	log2 fold change (vemurafenib)	log2 fold change [1]	log2 fold change (barasertib)	log2 fold change [2]	log2 fold change (volasertib)	log2 fold change [3]	log2 fold change [4]	log2 fold change [5]	log2 fold change (saracatinib)	log2 fold change (sotrastaurin)
AFF4 (UniProt Q9UHB7)	inactive: 0.157	inactive: -0.012	inactive: -0.072	inactive: 0.001	inactive: -0.019	inactive: 0.023	inactive: -0.133	inactive: -0.04	inactive: -0.009	inactive: 0.002
AGO3 (UniProt Q9H9G7)	inactive: 0	inactive: 0.014	inactive: 0.025	inactive: 0.033	inactive: 0.019	inactive: -0.029	inactive: -0.014	inactive: 0.067	inactive: -0.003	inactive: 0.025
